Common to all, as to assay: odorant receptor activation (CRE luciferase / Renilla) (fold of no-odor wells); higher = more activation
What all share (conditions): 100 µM

In test [1] the test system is OR1J2 clone 1443.
The test system of test [2] is OR1J4 clone 1429.
In test [3] the test system is OR1K1 clone 1315.
In test [4] the test system is OR1L1 clone 1379.
In test [5] the test system is OR1L3 clone 1090.
Test [6] deals with OR1L4 G234R clone 1102.
In test [7] the test system is OR1L6 Q23K/C150Y/I215T/R221Q/M223I/G234R clone 1539.
The test system of test [8] is OR1L8 clone 1088.
Test [9] concerns OR1M1 clone 1198.
Test [10] relates to OR1N1 clone 1463.

The structures appear in SMILES notation. Several values for one entry are separate records, joined by “and”; a condition that tells them apart may be missing. Identical values can stand only once. The list shows a part of the results. Each value is one well over the wells without odorant, computed here; the data are noisy.

With `CC12CCC(CC1)C(C)(C)O2` [cineole], the odorant receptor activation in test [1] was 0.261; in test [2], 0.218; in [3] it was 0.799; in test [4] it was 0.209; in test [5], 0.773; in test [6], 0.953. In addition, the odorant receptor activation in [7] was found to be 1.02; in test [8], 0.892; in test [9], 0.857; in [10] it was 0.97.
Regarding `COC(=O)c1ccccc1` [methyl benzoate], the odorant receptor activation in test [1] was found to be 0.89; in [2], 0.832; in test [3] it was 0.928; in [4], 0.878; in test [5], 0.931; in [6], 1.59. Further, the odorant receptor activation was 1.21 in test [8]; 0.775 in test [9]; 0.767 and 1.12 in [10].
For `CCCCCOC(C)=O` [n-amyl acetate], the odorant receptor activation in test [1] is 0.616; in test [2] it was 0.95; in [3], 0.659; in test [4], 0.78; in test [5] it was 2.11; in test [6], 1.78. Further, the odorant receptor activation in test [8] is 1.87; in test [9], 0.767; in test [10] it was 0.617 and 1.03.
Take `C=CCc1ccc(OC)c(OC)c1` [eugenol methyl ether]: the odorant receptor activation was found to be 1.38 in test [1]; 1.51 in test [2]; 1.66 in test [3]; 1.71 in test [4]; 1.32 in [5]; 1.75 in [6]. Moreover, the odorant receptor activation in [7] amounted to 0.924; in test [8] it was 1.64; in test [9], 2.01; in test [10] it was 1.35.
For the compound `CC1COCc2cc3c(cc21)C(C)(C)C(C)C3(C)C` (stereo not given) [galaxolide], the odorant receptor activation in test [1] was 1.53; in test [2], 2.75; in test [4], 2.89; in test [5], 4.11; in [6], 3.75; in test [7] it was 1.83 and 3.94. The odorant receptor activation in [8] was 1.73; in test [9] it was 0.915.
Take `CCCCCCCCCCC=O` [undecanal]: the odorant receptor activation in test [1] is 1.12; in test [2], 1.17; in test [3], 1.14; in test [4] it was 1.33; in test [5], 1.18; in [6], 1.03. The odorant receptor activation in [7] was 0.898; in test [8], 1.11; in test [9], 1.2; in [10], 1.28.
In the case of `CCCCCCCC=CC=O` [2-decenal], the odorant receptor activation came to 1.31 in [1]; 1.17 in test [2]; 0.997 in test [3]; 1.43 in [4]; 55.8 in test [5]; 26.7 in test [6]. In addition, the odorant receptor activation in [7] amounted to 1.29; in [8], 3.08; in test [9], 0.997; in [10], 1.51.
Take `CC(=O)C(C)=O` [diacetyl]: the odorant receptor activation in [1] is 1.46; in test [2] it was 1.44; in test [3], 1.05; in test [4] it was 1.4; in test [5], 0.986; in [6], 1.15. Moreover, the odorant receptor activation is 0.873 in test [7], 1.01 in [8], 1.16 in test [9] and 1.47 in [10].
With `CCCC(=O)O` [butyric acid], the odorant receptor activation was 0.239 in test [1]; 0.273 in [2]; 0.73 in [3]; 0.265 in [4]; 1.17 in test [5]; 1.21 in test [6]. Moreover, the odorant receptor activation stood at 1.15 in test [7], 1.48 in test [8], 0.82 in test [9] and 1.1 in [10].
As to `c1cnccn1` [pyrazine], the odorant receptor activation in test [1] stood at 1.27; in test [2] it was 1.22; in [3], 0.938; in [4], 1.26; in test [5], 1.21; in test [6] it was 1.07. For the same compound, the odorant receptor activation came to 0.78 in test [7], 1.09 in test [8], 1.15 in test [9] and 0.901 in [10].
Regarding `CC1CCC(C(C)C)C(O)C1` (single isomer, unassigned; (+)) [(+)-menthol], the odorant receptor activation in test [1] was 1.36; in test [2], 1.22; in [3], 0.87; in test [4] it was 0.972; in test [5] it was 37.5; in test [6], 23.4. Besides, the odorant receptor activation in [7] was determined as 1.31; in test [8], 1.48; in [9], 1.22; in test [10], 1.16.
As to `CCCCCC(=O)O` [caproic acid], the odorant receptor activation in test [1] came to 0.293; in test [2], 0.24; in [3] it was 0.682; in test [4] it was 0.22; in test [5], 1.01; in [6], 1.2. Also, the odorant receptor activation in test [7] is 1.03; in test [8] it was 1.11; in test [9], 0.876; in [10], 1.03.
Turning to `CC(C)CC(=O)O` [isovaleric acid], the odorant receptor activation in test [1] was 0.836; in test [2], 0.725; in test [3], 0.232; in test [4], 0.892; in test [5] it was 1.16; in test [6] it was 0.943. Besides, the odorant receptor activation in test [7] was 0.986; in test [8], 1.14; in test [9], 1.42; in [10], 0.997.
With `CCCCCC(C)=O` [2-heptanone], the odorant receptor activation in [1] was found to be 1.03; in [2], 0.98; in test [3], 2.16; in test [4] it was 0.929; in test [5], 1.07; in test [6] it was 0.739. For the same compound, the odorant receptor activation in test [8] was 0.432; in test [9], 1.32; in test [10] it was 0.835 and 0.802.
